PubChem BioAssay AID1671195, Yale University – 2021
This is one part, drawn at random, of about 22,000 deposited reagents. About 1,510 of all reagents (6.9%) count as active. 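Active includes knockdowns raising or lowering LDL uptake; positive z-scores mean more uptake, negative mean less.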 Reagent sequences are not shown.

Assay: 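Genes whose knockdown alters LDL uptake in liver cancer cells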 (primary screen)
System: human Huh7 hepatoma cells
Reagents: siRNA pool against human genes, 18 nM
Duration: about 2 to 2.5 days of knockdown, then 8 h LDL uptake
Treatment: DiI-labelled LDL at 30 µg/ml for 8 h, in lipoprotein-deficient serum medium
Read-out: 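Per-cell DiI-LDL intensity by automated imaging; well means scaled to the plate median and given as a robust z-score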
Direction: robust z-score: higher = more LDL uptake after knockdown
Call rule: 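Active when two or more replicates show a robust z-score above 2 or below -2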

target gene | PubChem SID | robust z-score, replicate 1 | robust z-score, replicate 2 | robust z-score, replicate 3 | Outcome
METTL25 | SID442894752 | 0.288 | -0.405 | -0.175 | inactive
TPMT | SID442904596 | -1.58 | -1.94 | -1.7 | inactive
ZNF165 | SID442893213 | 0.208 | -0.0296 | 0.0499 | inactive
AGPAT1 | SID442893735 | 0.192 | 0.204 | -0.347 | inactive
LINC01949 | SID442893708 | 0.118 | 0.211 | -0.271 | inactive
TECPR1 | SID442893643 | 0.000901 | 0.0176 | 0.0609 | inactive
PDP2 | SID442893005 | -0.0458 | 0.488 | -0.148 | inactive
SRSF2 | SID442888147 | 0.624 | 0.538 | 1.17 | inactive
MGP | SID442892950 | 0.439 | -0.533 | 0.408 | inactive
ROPN1L | SID442894547 | -0.227 | 0.0737 | -0.0691 | inactive
LOC441099 (retired record) | SID442900475 | -0.646 | -0.785 | -0.862 | inactive
HACD1 | SID442886473 | 1.44 | 0.383 | 1.62 | inactive
NOTCH4 | SID442889897 | 0.361 | 0.724 | 0.391 | inactive
PUF60 | SID442893569 | 0.316 | 0.147 | -0.36 | inactive
RPL36P5 | SID442887205 | 0.738 | 0.851 | 1.29 | inactive
LOC391784 (retired record) | SID442901218 | -0.958 | -1.05 | -0.593 | inactive
HSD17B14 | SID442887730 | 0.939 | 0.701 | 0.918 | inactive
TNFSF9 | SID442895865 | 0.132 | -0.0972 | -0.678 | inactive
CITED1 | SID442901964 | 0.526 | -2.02 | -1.47 | inactive
RAD54B | SID442896775 | -0.281 | -0.916 | 0.262 | inactive
RAD54B | SID442896987 | -0.037 | -0.205 | -0.761 | inactive
DIPK1C | SID442891202 | 0.448 | 0.342 | 0.162 | inactive
CYB5R4 | SID442891135 | 0.668 | -0.259 | 0.568 | inactive
TNRC18 | SID442889730 | 0.498 | 0.996 | 0.0571 | inactive
TNRC18 | SID442898838 | -0.987 | -0.557 | -0.0882 | inactive
CDK14 | SID442889517 | -0.0524 | 1.51 | 0.18 | inactive
TUBA4A | SID442891824 | 0.256 | 0.23 | 0.237 | inactive
TNNI3K | SID442884796 | 1.57 | 1.43 | 2.66 | inactive
